This is one part of the list.
B1: il10ra_site1_normal_mot_HHH_b2_00475_000000107_0001_44_57_H_._HHH_b2_03520_0001_0000100003_0000002_0 (protein)
chain: SSSSDAEEVAHLLFRAIELLFRGDKEEAEELVEEAKEIAEESNDPELQRYVEIAEHFVKAHSSSS
B2: il10ra_site1_sap_30_mot_HHH_b1_08001_000000032_0001_1_19_H_._HHH_b2_00086_0001_0000200010_0000001_1_0001 (protein)
chain: SEKEELEELLEELGVPPELIRQLRKAFRLQAEQGAPPETVVRALEMFVRARGDPLAEEALELFLK
B3: il10ra_site1_normal_mot_HHH_b1_02809_af2_000000277_0001_40_57_H_._HHH_b1_08623_0001_0000100005_0000002_0_af2pred_0001 (protein)
chain: SSSSSEEARKAAEFLLRAAEEIPDPEKARLAIRFAIHLAKYANDPELVEELEEVLRELERSSSSS
B4: il10ra_site1_normal_mot_HHH_b1_08411_af2_000000053_0001_1_20_H_._HHH_b2_04602_0001_0000100002_0000001_0 (protein)
chain: SSSSQESFEIARRAIERAIELARRGNPEEAEEVLREAEELVRELNDETTLWSLEFALRAESSSSS
B5: il10ra_site1_sap_14_mot_cff26900b2948c323735a169404cbef0_0001_1_000000271_0001_18_33_H_._4a6c97db08e0c392ed9b478c1fd9fef5_0001_1_0001_0000300022_0000001_0_0001_ … (protein)
chain: SSSSDERTHEIIKLIRRFVELLRNGDEEEAEEVVKEAEELAKEAGNRLFLFIIKFLKERNSSSSS
B6: il10ra_site1_normal_mot_HHH_b2_03220_af2_000000223_0001_23_40_H_._HHH_b1_01997_0001_0000400021_0000002_0 (protein)
chain: SSSSSTEENEEIWKLLHEALRIPDKEEAERLVEEAIEIAEEANNEVLLIQARFALRAIKLSSSSS
B7: il10ra_site1_sap_13_mot_HHH_b1_06788_af2_000000238_0001_19_36_H_._HHH_b1_06454_af2_0001_0000600013_0000001_0_0001 (protein)
chain: SSSSDEEEQRVLELLKRANRLAFRGNPEEARELVEEAEEIAKELGDPALEEAVEIVKRFVKSSSS
B8: il10ra_site1_sap_28_mot_HHH_b1_05021_af2_000000167_0001_42_56_H_._HHH_b2_07882_af2_0001_0000700011_0000001_0_0001 (protein)
chain: SSSSSEAARELYELSREAAELHHEGNPEEARKVLEEAFELAEEAGNWNFLWVIRMLLELLSSSSS
B9: il10ra_site1_sap_21_mot_HHH_b1_05303_af2_000000175_0001_41_57_H_._HHH_b2_05875_af2_0001_0000400032_0000001_0_0001 (protein)
chain: SSSSSEEEERIERLLEEIRELLEEGDYREASQLLQEATHLALRASNKELLQEIWELVQEVASSSS
B10: il10ra_site1_normal_mot_HHH_b1_01082_af2_000000031_0001_3_19_H_._HHH_b2_03832_af2_0001_0000500020_0000001_0 (protein)
chain: SSSSSNEYEEVKRAIEEAIRLYREGNPEEARRLLEEVIEEAEEAGNFAAVWSLEHLLRLLSSSSS

Biological target: il10ra, Q13651
Experiment: yeast display titration

Q: Which “apparent Kd” value does the source give for B1 here?
A: inactive: no binding seen

Q: B2 was tested. Which “apparent Kd” value did it give?
A: inactive: no binding seen

Q: For B3, which “apparent Kd” value is on record?
A: inactive: no binding seen

Q: For B4, which “apparent Kd” value is on record?
A: inactive: no binding seen

Q: With B5 as the binder, how does the “apparent Kd” value read?
A: inactive: no binding seen

Q: With B6 as the binder, how does the “apparent Kd” value read?
A: inactive: no binding seen

Q: With B7 as the binder, how does the “apparent Kd” value read?
A: inactive: no binding seen

Q: How did the “apparent Kd” value turn out when B8 was run?
A: inactive: no binding seen

Q: How did the “apparent Kd” value turn out when B9 was run?
A: inactive: no binding seen

Q: How did the “apparent Kd” value turn out when B10 was run?
A: inactive: no binding seen

From PMC10163288
